This is an account of results in article PMC7661038.

Results are given in words; binding and its absence hold for the method and conditions named. Binding seen in cells or lysates may run through a third protein. Some results given as binding are weak or reduced against the parent protein; the word gives no strength. For some assays here: Tags and fused reporters may be left off the sequences shown.

Assay [1] has as its target T1, N-terminal Dot1l (1-500aa) (mouse) (UniProt Q6XZL8).
T1 sequence: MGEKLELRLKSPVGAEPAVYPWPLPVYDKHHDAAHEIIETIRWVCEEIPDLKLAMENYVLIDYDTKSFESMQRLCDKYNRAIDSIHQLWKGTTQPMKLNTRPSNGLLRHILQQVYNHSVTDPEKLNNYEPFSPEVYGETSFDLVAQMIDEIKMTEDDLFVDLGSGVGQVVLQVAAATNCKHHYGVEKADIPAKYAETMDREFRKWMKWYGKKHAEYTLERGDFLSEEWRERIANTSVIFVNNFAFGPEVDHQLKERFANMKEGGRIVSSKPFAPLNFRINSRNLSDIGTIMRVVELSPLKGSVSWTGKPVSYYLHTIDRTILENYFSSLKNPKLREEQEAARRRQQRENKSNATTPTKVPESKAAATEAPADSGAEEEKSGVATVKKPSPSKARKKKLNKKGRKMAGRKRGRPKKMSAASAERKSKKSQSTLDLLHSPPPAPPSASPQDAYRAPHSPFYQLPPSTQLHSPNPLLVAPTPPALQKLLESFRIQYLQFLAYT
The assay can be described thus: co-IP; lysates of HEK293 cells cotransfected with FLAG-tagged Zc3h10 and HA-tagged Dot1l (whole or truncated); IP buffer 20 mM Tris pH 7.4, 150 mM NaCl, 1 mM EDTA, 10% glycerol, 1% NP-40; 2 hr at 4°C with anti-FLAG M2 or anti-HA; immunoblot. (In general: In western blotting, separated proteins are transferred to a membrane and probed.)

In assay [2] the target is T2, Dot1l C-terminal domain (1001-1540aa) (mouse) (UniProt Q6XZL8).
T2 sequence: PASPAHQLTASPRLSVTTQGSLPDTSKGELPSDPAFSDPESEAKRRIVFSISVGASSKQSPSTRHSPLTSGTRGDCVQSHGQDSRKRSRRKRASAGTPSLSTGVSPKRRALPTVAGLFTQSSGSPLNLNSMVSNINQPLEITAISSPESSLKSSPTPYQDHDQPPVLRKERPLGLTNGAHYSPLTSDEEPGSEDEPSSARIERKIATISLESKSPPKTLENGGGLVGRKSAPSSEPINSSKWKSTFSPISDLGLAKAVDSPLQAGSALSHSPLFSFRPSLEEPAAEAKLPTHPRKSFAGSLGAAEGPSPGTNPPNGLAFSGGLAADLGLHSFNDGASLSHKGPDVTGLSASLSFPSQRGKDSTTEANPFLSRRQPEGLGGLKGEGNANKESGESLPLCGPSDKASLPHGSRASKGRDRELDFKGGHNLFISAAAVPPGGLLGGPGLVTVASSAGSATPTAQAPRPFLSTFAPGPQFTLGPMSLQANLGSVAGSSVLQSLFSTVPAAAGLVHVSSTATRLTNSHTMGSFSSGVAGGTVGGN
Described as above.

For assay [3], the target named is T3, Dot1l middle fragment (501-1000aa) (mouse) (UniProt Q6XZL8).
T3 sequence: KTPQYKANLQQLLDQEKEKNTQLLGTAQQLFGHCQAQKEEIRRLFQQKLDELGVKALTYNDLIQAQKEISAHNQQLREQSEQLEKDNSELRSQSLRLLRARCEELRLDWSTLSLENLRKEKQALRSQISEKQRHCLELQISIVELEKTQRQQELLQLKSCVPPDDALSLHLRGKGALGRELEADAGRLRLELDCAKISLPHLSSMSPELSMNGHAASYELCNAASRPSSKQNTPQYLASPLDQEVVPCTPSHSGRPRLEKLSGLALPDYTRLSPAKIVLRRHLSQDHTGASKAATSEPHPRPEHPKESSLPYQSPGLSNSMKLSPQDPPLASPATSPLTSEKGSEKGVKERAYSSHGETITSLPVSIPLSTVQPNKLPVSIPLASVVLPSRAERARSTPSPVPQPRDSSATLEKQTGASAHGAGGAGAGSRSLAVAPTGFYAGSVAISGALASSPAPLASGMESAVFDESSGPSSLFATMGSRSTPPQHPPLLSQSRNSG
The description is as above.

The target of a further assay is HA-Dot1l (mouse) (UniProt Q6XZL8). The description is as above.
Assay [4] addresses endogenous Dot1l (mouse (endogenous in BAT)) (UniProt Q6XZL8). The assay can be described thus: co-IP; endogenous proteins, nuclear extracts of BAT of wild-type mice (also mice housed at room temperature or 4°C); Dot1l or Zc3h10 antibody and protein A/G agarose beads overnight at 4°C; immunoblot.

B1: Flag-Zc3h10 (protein, UniProt Q8R205 1-435)
chain: MPDRDSYANGTGSSGGGPGGGGSEEASGAGTGSGGATSDAICRDFLRNVCKRGKRCRYRHPDMSEVSNLGVSKNEFIFCHDFQNKECSRPNCRFIHGSKEDEDGYKKTGELPPRLRQKVAAGLGLSPADLPNGKEEVPICRDFLKGDCQRGAKCKFRHLQRDFEFDARGGGGTGGGGSTGSAPPGRRHDLYDIYDLPERGFEDHEPGPKRRRGGCCPPDGPHFESYECNLAPLRGVECRLLEEENALLRKRVEELKKQVSNLLATNEVLLEQNAQFRNQAKVMTLSSTAPATEQTLAPTVGTVATFNHGIAQTHTTLSSQALQPRPVSQQELVAPTGAPAAPPTNAAPPAAPPPPPPHLNPEITPLSAALAQTIAQGMAPPPVSMAPVAVSVAPVAPVAVSMAQPLAGITMSHTTTPMVTYPIASQSMRITAMPH
Consider B1, for which the binding entry in assay [1] is “no binding”; in assay [2] it was “no binding”; in assay [3], “binds”; with HA-Dot1l (mouse) it was “binds”.

B2: endogenous Zc3h10 (protein, UniProt Q8R205 1-435)
chain: MPDRDSYANGTGSSGGGPGGGGSEEASGAGTGSGGATSDAICRDFLRNVCKRGKRCRYRHPDMSEVSNLGVSKNEFIFCHDFQNKECSRPNCRFIHGSKEDEDGYKKTGELPPRLRQKVAAGLGLSPADLPNGKEEVPICRDFLKGDCQRGAKCKFRHLQRDFEFDARGGGGTGGGGSTGSAPPGRRHDLYDIYDLPERGFEDHEPGPKRRRGGCCPPDGPHFESYECNLAPLRGVECRLLEEENALLRKRVEELKKQVSNLLATNEVLLEQNAQFRNQAKVMTLSSTAPATEQTLAPTVGTVATFNHGIAQTHTTLSSQALQPRPVSQQELVAPTGAPAAPPTNAAPPAAPPPPPPHLNPEITPLSAALAQTIAQGMAPPPVSMAPVAVSVAPVAPVAVSMAQPLAGITMSHTTTPMVTYPIASQSMRITAMPH
B2: in assay [4], the binding result is given as “binds”.
